The results in this text go back to patent US5519115A (priority 1993, dated 1996).

Some peptides are written in HELM: one residue between dots, names in brackets for other building blocks, links after the first $.

This data set can be described thus: general procedure: Boc solid-phase peptide synthesis; PAM resin (t-Boc-aminoacyl-OCH2 PAM); DCC/HOBT active esters in NMP; symmetrical anhydrides (DCC) in DMF. To be noted: whole synthesis, trifluoroacetate salts after HPLC, acetate salts after ion exchange; for final HPLC purity: analytical HPLC, Vydac C-4, UV 215 nm; for final HPLC purity / crude yield: scale of the general procedure 0.5 mmol.

Take “PEPTIDE1{G.M.A.S.K.A.G.A.I.A.G.K.I.A.K.V.A.L.K.A.L}$$$$V2.0”: the “final HPLC purity” value was “greater than 98%” and the crude yield stood at 71%. For the same substance, the crude mass (scale 0.5 mmol) is given as 559 mg.
As to Met-(Mag 1)-(Mag 1), the “final HPLC purity” value was “greater than 97%” and the crude yield amounted to 82%. In addition, the crude mass (scale 0.5 mmol) is given as 796 mg.
Regarding “PEPTIDE1{M.G.I.G.K.F.L.R.E.A.G.K.F.G.K.A.F.V.G.E.I.M.K.G.I.G.K.F.L.R.E.A.G.K.F.G.K.A.F.V.G.E.I.M.K.P}$$$$V2.0”, the “final HPLC purity” value is reported as “greater than 95%”, the crude yield is 84% and the crude mass was 562 mg.
